Earlier results on one molecule are cited in patent publication EP3895695A1, “SUPERCRITICAL CARBON DIOXIDE-BASED METHODOLOGY TO FORMULATE BIOACTIVE PREPARATIONS” (Universidad Autónoma de Madrid, priority 2020, dated 2021).

The conditions of this series: at 393.15 K; cited from earlier work.

Take `O=c1c(O)c(-c2ccc(O)c(O)c2)oc2cc(O)cc(O)c12` [quercetin, 2-(3,4-Dihydroxyphenyl)-3,5,7-trihydroxy-4H-1-benzopyran-4-one,3,3',4',5,6-Pentahydroxyflavone - Quercetin]: the “solubility of quercetin in a medium chain triacylglycerol mixture” value is 1.77 ± 0.29 mg/g.
